Results are given in words; binding and its absence hold for the method and conditions named. For some assays here: In cells and extracts the contact can be indirect. Some binding calls cover weakened binding; strength is not graded here. For some assays here: Tags and fused reporters may be left off the sequences shown.
Experiments:
[1] = biological target: γ-TuSC^Alp6-MBP:Mzt1 complex (S. pombe) (UniProt Q9USQ2+Q9Y705+P25295+P0CF96); experiment: co-sedimentation; 10-30% glycerol density gradient in HB100, 55,000 rpm, 4°C, 45 or 80 min; 50 μL of each purified complex at 1 mg/mL mixed and incubated 15 min at 4°C before loading; both purified
Alp4-MBP (S. pombe) = biological target: T1, Alp4-MBP (S. pombe) (UniProt Q9Y705); experiment: pull-down; amylose (MBP) purification of Alp4-MBP coexpressed with Mto1/2[bonsai], in the absence or presence of Mzt1, without other γ-TuSC proteins; SDS-PAGE
T1 sequence: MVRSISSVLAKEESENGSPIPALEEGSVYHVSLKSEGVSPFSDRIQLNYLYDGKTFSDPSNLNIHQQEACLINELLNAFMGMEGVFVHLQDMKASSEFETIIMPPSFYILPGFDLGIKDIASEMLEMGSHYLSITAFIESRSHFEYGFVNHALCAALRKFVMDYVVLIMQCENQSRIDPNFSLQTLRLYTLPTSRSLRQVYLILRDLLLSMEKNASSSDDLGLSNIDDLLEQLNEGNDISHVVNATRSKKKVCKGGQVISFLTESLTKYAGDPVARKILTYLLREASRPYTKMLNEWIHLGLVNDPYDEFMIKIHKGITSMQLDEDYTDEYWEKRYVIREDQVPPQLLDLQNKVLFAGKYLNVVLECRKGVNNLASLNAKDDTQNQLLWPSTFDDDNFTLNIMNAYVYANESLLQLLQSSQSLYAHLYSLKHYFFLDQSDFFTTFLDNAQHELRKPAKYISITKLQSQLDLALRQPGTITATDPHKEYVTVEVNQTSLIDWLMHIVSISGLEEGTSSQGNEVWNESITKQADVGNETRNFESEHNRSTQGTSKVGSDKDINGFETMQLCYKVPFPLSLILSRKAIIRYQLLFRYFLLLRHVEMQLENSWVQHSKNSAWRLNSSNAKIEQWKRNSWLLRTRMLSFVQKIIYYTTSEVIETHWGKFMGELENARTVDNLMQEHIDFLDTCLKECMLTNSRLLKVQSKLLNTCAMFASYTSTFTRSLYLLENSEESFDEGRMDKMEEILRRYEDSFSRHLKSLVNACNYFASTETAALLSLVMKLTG

Chains of the proteins cited; added tags and fusions are not shown. Lines headed by an entry give the natural chain unless they say otherwise; changes in a name come on top.
UniProt P25295: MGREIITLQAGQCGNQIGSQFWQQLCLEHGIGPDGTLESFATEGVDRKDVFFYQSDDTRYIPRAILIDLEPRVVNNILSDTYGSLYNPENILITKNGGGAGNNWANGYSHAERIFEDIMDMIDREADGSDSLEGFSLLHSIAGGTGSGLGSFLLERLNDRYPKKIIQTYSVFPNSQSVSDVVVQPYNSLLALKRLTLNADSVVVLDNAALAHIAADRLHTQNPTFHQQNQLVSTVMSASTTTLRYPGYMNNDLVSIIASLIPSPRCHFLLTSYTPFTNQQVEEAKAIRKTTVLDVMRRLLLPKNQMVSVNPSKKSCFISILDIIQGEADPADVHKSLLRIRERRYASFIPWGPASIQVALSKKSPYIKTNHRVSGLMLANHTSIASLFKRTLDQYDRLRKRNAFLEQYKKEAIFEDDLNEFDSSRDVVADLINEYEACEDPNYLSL

Alp6-MBP = biological target: T2, Alp6-MBP (S. pombe, UniProt Q9USQ2 1-832); experiment: pull-down; amylose resin purification via Alp6-MBP from High Five cells coexpressing γ-TuSC^Alp6-MBP proteins, Mto1/2[bonsai] and Mzt1 (MGM holocomplex); HB100 buffer, 4°C, SDS-PAGE
T2 construct: Alp6, S. pombe γ-TuSC protein, homolog of human GCP3; also called Alp6 (homolog of human GCP3) with C-terminal MBP-6xHis tag; tagged subunit of γ-TuSC^Alp6-MBP; source: High Five insect cells (MultiBac baculovirus), coexpressed with partners; in lysate, and purified on amylose; not shown: MBP, C-terminal, kept; 6xHis, C-terminal, kept
T2 sequence (looked up): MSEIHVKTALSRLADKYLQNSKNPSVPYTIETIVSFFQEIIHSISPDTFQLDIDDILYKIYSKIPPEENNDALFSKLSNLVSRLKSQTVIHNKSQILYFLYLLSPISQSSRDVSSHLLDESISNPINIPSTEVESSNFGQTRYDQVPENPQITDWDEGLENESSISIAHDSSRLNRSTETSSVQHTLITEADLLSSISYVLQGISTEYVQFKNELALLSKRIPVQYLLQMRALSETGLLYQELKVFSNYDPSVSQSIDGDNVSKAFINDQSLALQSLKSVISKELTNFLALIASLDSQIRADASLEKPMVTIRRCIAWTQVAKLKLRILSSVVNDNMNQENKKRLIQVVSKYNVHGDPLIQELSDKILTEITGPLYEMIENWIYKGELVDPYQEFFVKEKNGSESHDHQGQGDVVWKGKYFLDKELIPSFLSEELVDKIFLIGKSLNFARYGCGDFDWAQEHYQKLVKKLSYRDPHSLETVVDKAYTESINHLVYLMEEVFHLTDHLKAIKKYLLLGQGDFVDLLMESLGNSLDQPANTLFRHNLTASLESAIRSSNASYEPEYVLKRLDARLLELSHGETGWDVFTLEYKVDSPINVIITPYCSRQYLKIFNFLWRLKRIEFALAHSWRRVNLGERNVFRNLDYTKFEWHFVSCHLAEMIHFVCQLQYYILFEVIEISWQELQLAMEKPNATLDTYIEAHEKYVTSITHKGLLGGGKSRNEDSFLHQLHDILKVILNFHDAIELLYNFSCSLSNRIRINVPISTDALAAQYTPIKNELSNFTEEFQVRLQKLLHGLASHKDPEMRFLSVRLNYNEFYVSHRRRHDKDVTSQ

[2] = biological target: T3, 6xHis-Mto1[bonsai] (S. pombe) (UniProt O94488); experiment: pull-down; purification of Mto1/2[bonsai] via the 6xHis tag on Mto1[bonsai]: ammonium sulfate cut, Ni2+ Fractogel, then Superose 6 in HB100
T3 sequence: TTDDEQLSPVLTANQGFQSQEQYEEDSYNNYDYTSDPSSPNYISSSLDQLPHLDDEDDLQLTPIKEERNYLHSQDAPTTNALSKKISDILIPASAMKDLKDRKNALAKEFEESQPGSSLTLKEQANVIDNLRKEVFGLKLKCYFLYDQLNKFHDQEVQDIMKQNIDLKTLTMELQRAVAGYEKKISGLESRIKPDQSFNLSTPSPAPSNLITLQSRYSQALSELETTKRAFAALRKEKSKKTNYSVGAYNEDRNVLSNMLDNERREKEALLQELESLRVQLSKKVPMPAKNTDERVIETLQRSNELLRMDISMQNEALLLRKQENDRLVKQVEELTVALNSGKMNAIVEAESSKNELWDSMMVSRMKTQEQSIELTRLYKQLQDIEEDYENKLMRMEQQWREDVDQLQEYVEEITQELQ

[3] = biological target: T4, Alp4-MBP (S. pombe), Q9Y705; experiment: pull-down; amylose (MBP) purification of Alp4-MBP or Alp6-MBP coexpressed with Mzt1 only; SDS-PAGE; settings: remark: other sources report otherwise
T4 chain: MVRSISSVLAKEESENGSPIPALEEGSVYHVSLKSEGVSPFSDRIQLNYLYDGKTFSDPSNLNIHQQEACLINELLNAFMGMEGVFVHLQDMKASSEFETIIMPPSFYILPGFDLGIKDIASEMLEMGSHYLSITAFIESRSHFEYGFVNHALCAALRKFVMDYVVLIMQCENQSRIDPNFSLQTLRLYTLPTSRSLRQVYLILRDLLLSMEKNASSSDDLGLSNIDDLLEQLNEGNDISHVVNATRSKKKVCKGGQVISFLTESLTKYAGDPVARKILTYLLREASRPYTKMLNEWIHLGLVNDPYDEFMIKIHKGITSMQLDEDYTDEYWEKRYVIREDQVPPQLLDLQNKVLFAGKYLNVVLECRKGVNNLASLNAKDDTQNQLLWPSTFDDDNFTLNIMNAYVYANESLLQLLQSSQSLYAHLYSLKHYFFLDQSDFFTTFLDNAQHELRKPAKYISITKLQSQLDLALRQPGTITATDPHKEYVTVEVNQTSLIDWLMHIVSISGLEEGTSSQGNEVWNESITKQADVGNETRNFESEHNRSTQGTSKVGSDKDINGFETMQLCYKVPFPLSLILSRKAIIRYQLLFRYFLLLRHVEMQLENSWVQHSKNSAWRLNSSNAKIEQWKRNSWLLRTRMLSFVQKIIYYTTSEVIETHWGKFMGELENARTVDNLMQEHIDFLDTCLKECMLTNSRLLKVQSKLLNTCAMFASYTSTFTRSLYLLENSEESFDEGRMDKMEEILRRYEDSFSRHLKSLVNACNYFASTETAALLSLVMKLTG

B1: Mto1/2[bonsai] complex (complex, S. pombe)
chain 1: TTDDEQLSPVLTANQGFQSQEQYEEDSYNNYDYTSDPSSPNYISSSLDQLPHLDDEDDLQLTPIKEERNYLHSQDAPTTNALSKKISDILIPASAMKDLKDRKNALAKEFEESQPGSSLTLKEQANVIDNLRKEVFGLKLKCYFLYDQLNKFHDQEVQDIMKQNIDLKTLTMELQRAVAGYEKKISGLESRIKPDQSFNLSTPSPAPSNLITLQSRYSQALSELETTKRAFAALRKEKSKKTNYSVGAYNEDRNVLSNMLDNERREKEALLQELESLRVQLSKKVPMPAKNTDERVIETLQRSNELLRMDISMQNEALLLRKQENDRLVKQVEELTVALNSGKMNAIVEAESSKNELWDSMMVSRMKTQEQSIELTRLYKQLQDIEEDYENKLMRMEQQWREDVDQLQEYVEEITQELQ
chain 2: MSEHNYQSDREVAEDPFLNYEASANQLSSNSRESTPRGSPWRAGMRSASLMTEPLEDSMYSDNNYLDNGVSFTKDENPLYSPSWPSLADANVNSMKSNNAIQEHKAAKFVSEKSLEKVSTADNNLVLQELENLRERLNQVELQLSERPSSYLGYHNNLSPYRSPNSYPSLLPSTHSPHSPAPLSTMQTALMRLRTYHPSPIILKPVEQAVNHAITLVNTSPSSVVDALCRSLAELCLGLVQEAIDASILSQQESSNSLDLVRHTPPLNYTSSVDSSPQRMASDSYGRPSLHLNDPFPSVDLQSNELSHHNVRTTLFSDDSRFHSKIHTHSTPPSQMYSAASHFRYRSDPSTRHVSNSTNKSSLHPSPTSLRVAHPIIPQRASPASQSFPSLQDTPSP
notes: Mto1 of S. pombe, amino acids 131-549 (Mto1[bonsai]); as m7; Mto2 of S. pombe; as m8; Copy numbers of the two chains in the complex are not measured here; also called 6xHis-Mto1/2[bonsai]; source: High Five insect cells (MultiBac baculovirus); coexpressed in lysate, or purified (ammonium sulfate, Ni2+ Fractogel, Superose 6); not shown: 6xHis, N-terminal, kept
B1 was tested, and the binding [1] was “binds”, the binding (Alp4-MBP (S. pombe)) was “binds” and the binding (Alp6-MBP) was “binds”.

B2: Mto2 (protein, UniProt Q9USP7 1-397)
chain: MSEHNYQSDREVAEDPFLNYEASANQLSSNSRESTPRGSPWRAGMRSASLMTEPLEDSMYSDNNYLDNGVSFTKDENPLYSPSWPSLADANVNSMKSNNAIQEHKAAKFVSEKSLEKVSTADNNLVLQELENLRERLNQVELQLSERPSSYLGYHNNLSPYRSPNSYPSLLPSTHSPHSPAPLSTMQTALMRLRTYHPSPIILKPVEQAVNHAITLVNTSPSSVVDALCRSLAELCLGLVQEAIDASILSQQESSNSLDLVRHTPPLNYTSSVDSSPQRMASDSYGRPSLHLNDPFPSVDLQSNELSHHNVRTTLFSDDSRFHSKIHTHSTPPSQMYSAASHFRYRSDPSTRHVSNSTNKSSLHPSPTSLRVAHPIIPQRASPASQSFPSLQDTPSP
In the case of B2, the binding [2] is reported as “binds”.

B3: Mzt1-6xHis (natural protein, S. pombe, UniProt P0CF96 1-64, looked up)
chain: MSESTKETIEVLYEIGTLLGTELDKTTLSLCISLCENNVHPEAIAQIIREIRMAQEQTVDTEPS
notes: Mzt1 of S. pombe; also called MOZART1 homolog; source: High Five insect cells (MultiBac baculovirus); coexpressed in lysate, co-purified in complexes, or purified alone (Ni2+ IMAC, Superdex 75); not shown: 6xHis, C-terminal, kept
In the case of B3, the binding [3] is reported as “no binding”.
